According to US8399515B2, “Five and fifteen carbon fatty acids for treating metabolic disorders and as nutritional supplements” (Baylor Research Institute, priority 2003, dated 2013):
At least one compound was matched to its structure with a doubt left.

Test system: SCAD patient
Assay: Meal test with triheptanoin or tripentanoin in a SCAD patient
Format: in vivo, human
Description: A VLCAD patient and an SCAD patient, both of whom had gastrostomy sites for enteral administration, each were provided with separate meals containing equimolar amounts of triheptanoin (C7) and tripentanoin (C5) at different times on the same day. Each patient was given the amount in 1 of 4 daily meals equivalent to a diet of 3 gms/Kg/day or about 30% of total Kcal as the triglyceride. Serial blood samples were obtained hourly and individual urines were collected at baseline and during the meal.
The patient with VLCAD (FIG. 3) was monitored over a 3 hour interval and the SCAD patient was monitored for 4 hours after beginning the meal. […] One way the VLCAD patient was monitored was for myristenoylcamitine (cis-5-C14:1), which reflects oxidation of oleate and is therefore an indication of ongoing lipolysis during the meal tests (it is not derived from either C7 or C5). […] These changes are not observed with even-carbon triglycerides. […]
In FIG. 4, C7-C3 represents the blood levels of C3 derived from C7; and C5-C3 represents the blood levels of C3 derived from C5, C7-C5 represents blood levels of pentanoylcarnitine (C5) derived from C7 meals and C5-C5 represents blood levels of pentanoylcarnitine (C5) derived from C5 meals. […] This increased quantity of C3 corresponds to those observed for SCAD deficiency in the fibroblast studies above shown in Table 1.

Compound: CCCCCCC(=O)O [C7, heptanoate, reference compound]
- Limitation in oxidation of the meal triglyceride: no limitation in oxidation
- Change in C4 (butyrylcarnitine) during the meal (C4 already at very low levels): no significant decrease in C4
